Assay results from patent US12285524B2, “Sustained-release pharmaceutical compositions comprising an antipsychotic drug and uses thereof” (priority 2018, dated 2025).
For at least one compound, name, drawing or mass did not settle the structure.

Conditions: PBS pH 7.4, 37±1° C.

## Cc1cc2c(s1)Nc1ccccc1N=C2N1CCN(C)CC1 [Olanzapine, olanzapine]
Over 24 hours
  releasing rate of olanzapine through the dialysis bag: > 99%
Within 2 hours
  olanzapine released through the dialysis bag: almost a hundred percent
